Test results from article doi:10.1101/740498.
These are yes or no findings as the source states them, for the method shown. Binding seen in cells or lysates may run through a third protein. Some results given as binding are weak or reduced against the parent protein; the word gives no strength. Each block holds one molecule with its values, some of them ahead of it.

The chains behind the UniProt entries cited, without tags or fusion partners.
UniProt P12270: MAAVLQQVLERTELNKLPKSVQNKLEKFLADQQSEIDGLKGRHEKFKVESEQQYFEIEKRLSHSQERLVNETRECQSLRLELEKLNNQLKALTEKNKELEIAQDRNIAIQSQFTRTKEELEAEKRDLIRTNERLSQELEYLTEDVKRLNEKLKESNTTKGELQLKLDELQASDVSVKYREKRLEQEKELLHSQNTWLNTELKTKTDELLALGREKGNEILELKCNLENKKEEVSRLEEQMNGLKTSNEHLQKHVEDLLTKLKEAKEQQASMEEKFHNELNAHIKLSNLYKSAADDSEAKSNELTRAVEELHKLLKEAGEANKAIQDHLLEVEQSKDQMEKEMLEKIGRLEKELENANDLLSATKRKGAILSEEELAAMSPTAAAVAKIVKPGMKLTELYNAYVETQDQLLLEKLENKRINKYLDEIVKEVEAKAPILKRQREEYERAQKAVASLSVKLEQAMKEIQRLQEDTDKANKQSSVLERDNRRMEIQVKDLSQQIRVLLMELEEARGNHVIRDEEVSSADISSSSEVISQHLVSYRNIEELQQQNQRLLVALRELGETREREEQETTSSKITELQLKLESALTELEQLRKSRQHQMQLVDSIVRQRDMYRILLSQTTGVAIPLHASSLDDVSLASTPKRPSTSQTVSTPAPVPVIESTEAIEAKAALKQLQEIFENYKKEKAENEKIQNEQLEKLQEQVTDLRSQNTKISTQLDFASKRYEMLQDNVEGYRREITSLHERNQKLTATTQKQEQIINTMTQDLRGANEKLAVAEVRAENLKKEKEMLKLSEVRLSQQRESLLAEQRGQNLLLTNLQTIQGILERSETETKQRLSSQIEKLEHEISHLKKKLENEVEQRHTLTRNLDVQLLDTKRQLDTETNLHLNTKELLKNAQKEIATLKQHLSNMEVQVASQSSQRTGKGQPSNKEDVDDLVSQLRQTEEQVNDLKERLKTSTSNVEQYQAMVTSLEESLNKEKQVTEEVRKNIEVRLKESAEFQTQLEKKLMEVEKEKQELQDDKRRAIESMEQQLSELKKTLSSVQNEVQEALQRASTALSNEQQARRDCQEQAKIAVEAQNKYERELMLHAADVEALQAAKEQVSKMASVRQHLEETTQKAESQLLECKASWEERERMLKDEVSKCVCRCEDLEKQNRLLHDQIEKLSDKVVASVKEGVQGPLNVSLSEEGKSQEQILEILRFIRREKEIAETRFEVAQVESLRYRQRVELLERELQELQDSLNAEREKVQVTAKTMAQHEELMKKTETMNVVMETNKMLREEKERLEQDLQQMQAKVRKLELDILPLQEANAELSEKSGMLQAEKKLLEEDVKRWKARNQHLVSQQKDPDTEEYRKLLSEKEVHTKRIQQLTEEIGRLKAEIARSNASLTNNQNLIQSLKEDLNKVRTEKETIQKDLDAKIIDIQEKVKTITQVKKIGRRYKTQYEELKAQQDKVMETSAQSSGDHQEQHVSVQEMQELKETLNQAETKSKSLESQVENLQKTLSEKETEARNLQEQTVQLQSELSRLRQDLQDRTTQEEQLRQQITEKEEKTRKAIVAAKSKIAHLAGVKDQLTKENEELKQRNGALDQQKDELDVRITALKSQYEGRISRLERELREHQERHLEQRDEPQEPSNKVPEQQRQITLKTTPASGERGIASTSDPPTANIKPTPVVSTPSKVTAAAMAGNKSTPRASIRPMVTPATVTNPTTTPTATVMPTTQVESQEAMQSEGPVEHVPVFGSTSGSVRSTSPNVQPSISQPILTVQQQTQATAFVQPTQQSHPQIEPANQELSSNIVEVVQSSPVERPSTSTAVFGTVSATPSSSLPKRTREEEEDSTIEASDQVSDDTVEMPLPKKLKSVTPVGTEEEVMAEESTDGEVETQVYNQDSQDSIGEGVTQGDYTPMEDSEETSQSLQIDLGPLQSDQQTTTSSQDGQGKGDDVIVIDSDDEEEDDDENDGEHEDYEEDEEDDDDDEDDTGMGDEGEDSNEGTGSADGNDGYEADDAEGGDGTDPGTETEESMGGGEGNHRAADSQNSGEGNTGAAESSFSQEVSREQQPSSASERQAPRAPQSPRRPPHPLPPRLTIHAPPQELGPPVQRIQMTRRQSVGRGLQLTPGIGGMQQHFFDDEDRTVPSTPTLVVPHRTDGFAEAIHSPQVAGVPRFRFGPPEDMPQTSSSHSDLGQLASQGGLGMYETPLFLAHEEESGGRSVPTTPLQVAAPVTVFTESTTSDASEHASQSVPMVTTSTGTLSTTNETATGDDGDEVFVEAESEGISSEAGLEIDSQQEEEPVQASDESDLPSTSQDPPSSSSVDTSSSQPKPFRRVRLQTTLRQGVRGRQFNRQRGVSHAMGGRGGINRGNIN
UniProt Q13838: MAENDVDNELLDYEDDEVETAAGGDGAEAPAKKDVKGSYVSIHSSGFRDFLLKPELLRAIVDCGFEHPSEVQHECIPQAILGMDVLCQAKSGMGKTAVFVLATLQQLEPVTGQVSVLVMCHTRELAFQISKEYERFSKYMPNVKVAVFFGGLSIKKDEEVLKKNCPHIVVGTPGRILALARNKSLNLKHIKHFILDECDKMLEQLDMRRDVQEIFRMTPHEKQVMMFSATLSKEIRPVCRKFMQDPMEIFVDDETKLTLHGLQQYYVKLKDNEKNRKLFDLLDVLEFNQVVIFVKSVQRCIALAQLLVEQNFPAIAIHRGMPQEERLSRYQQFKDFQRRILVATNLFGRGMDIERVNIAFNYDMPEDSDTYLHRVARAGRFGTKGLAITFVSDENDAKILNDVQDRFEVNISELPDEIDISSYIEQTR

What was measured:
[1] = target: FLAG-tagged TPR (UniProt P12270); test: co-IP
[2] = target: FLAG-tagged TPR, P12270; test: co-IP; conditions: remark: other sources report otherwise

binding [1]: binds
Molecule: TREX component UAP56 (from UniProt Q13838 1-428)

binding [2]: binds
B1: mRNA export receptor Nxf1, Q9UBU9 1-619 (protein)
chain: MADEGKSYSEHDDERVNFPQRKKKGRGPFRWKYGEGNRRSGRGGSGIRSSRLEEDDGDVAMSDAQDGPRVRYNPYTTRPNRRGDTWHDRDRIHVTVRRDRAPPERGGAGTSQDGTSKNWFKITIPYGRKYDKAWLLSMIQSKCSVPFTPIEFHYENTRAQFFVEDASTASALKAVNYKILDRENRRISIIINSSAPPHTILNELKPEQVEQLKLIMSKRYDGSQQALDLKGLRSDPDLVAQNIDVVLNRRSCMAATLRIIEENIPELLSLNLSNNRLYRLDDMSSIVQKAPNLKILNLSGNELKSERELDKIKGLKLEELWLDGNSLCDTFRDQSTYISAIRERFPKLLRLDGHELPPPIAFDVEAPTTLPPCKGSYFGTENLKSLVLHFLQQYYAIYDSGDRQGLLDAYHDGACCSLSIPFIPQNPARSSLAEYFKDSRNVKKLKDPTLRFRLLKHTRLNVVAFLNELPKTQHDVNSFVVDISAQTSTLLCFSVNGVFKEVDGKSRDSLRAFTRTFIAVPASNSGLCIVNDELFVRNASSEEIQRAFAMPAPTPSSSPVPTLSPEQQEMLQAFSTQSGMNLEWSQKCLQDNNWDYTRSAQAFTHLKAKGEIPEVAFMK
